# Where a name gives a salt, the structure may show the parent alone. ± gives the uncertainty stated by the source. This is one part of the list. Baselines shift from plate to plate; read single values as rough.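 At 6 dpf, larvae had a heat-shock-induced fluorescent stripe placed in rod outer segments; shedding distance, from stripe to outer segment tip, was measured in confocal stacks, roughly three fish per compound. Controls received 0.2% DMSO vehicle; compounds were flagged for ≥20% change versus same-week control and p < 0.001 (Dunnett test, mixed-effects models).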
# Assays:
# [1] = test system: Danio rerio larva rod photoreceptor outer segment; test: rod outer segment growth distance Dg, difference from same-week DMSO control mean; higher = more outer segment growth; conditions: 20 µM; treatment time: 4 days (6-10 dpf)
# [2] = test system: Danio rerio larva rod photoreceptor outer segment; test: rod outer segment shedding distance Ds, difference from same-week DMSO control mean; higher = less outer segment shedding; conditions: 20 µM; treatment time: 4 days (6-10 dpf)
Compound,rod outer segment growth distance Dg [1] [um],rod outer segment shedding distance Ds [2] [um]
Oc1ccc(-c2nc(-c3ccc(F)cc3)c(-c3ccncc3)[nH]2)cc1,0.63 ± 0.3,-0.48 ± 0.42
COc1ccc(C2=N[C@@H](c3ccc(Cl)cc3)[C@@H](c3ccc(Cl)cc3)N2C(=O)N2CCNC(=O)C2)c(OC(C)C)c1 [Nutlin-3],-1.02 ± 0.13,-1.13 ± 0.24
CNC(=C[N+](=O)[O-])NCCSCc1csc(CN(C)C)n1 [Nizatidine],0.67 ± 0.24,0.7 ± 0.3
CCOC(=O)[C@H](CCc1ccccc1)N[C@@H](C)C(=O)N1CCC[C@H]1C(=O)O [Enalapril Maleate],-0.04 ± 0.25,-1.88 ± 0.36
O=C(c1cc(Cc2n[nH]c(=O)c3ccccc23)ccc1F)N1CCN(C(=O)C2CC2)CC1,-0.89 ± 0.14,-0.57 ± 0.24
CC1(C)[C@@H](O[C@H]2O[C@H](C(=O)O)[C@@H](O)[C@H](O)[C@H]2O[C@@H]2O[C@H](C(=O)O)[C@@H](O)[C@H](O)[C@H]2O)CC[C@]2(C)[C@H]3C(=O)C=C4[C@@H]5C[C@@](C)(C(=O)O)CC[C@]5(C)CC[C@@]4(C)[C@]3(C)CC[C@@H]12 [Glycyrrhizic Acid],0.41 ± 0.3,0.76 ± 0.23
COc1ccc2[nH]c([S@@+]([O-])Cc3ncc(C)c(OC)c3C)nc2c1 [Esomeprazole Sodium],-0.55 ± 0.29,-0.45 ± 0.31
Cc1cc2c(cc1CC(=O)c1sccc1S(=O)(=O)Nc1onc(C)c1Cl)OCO2 [Sitaxentan sodium],-0.03 ± 0.17,0.18 ± 0.16
O=C(C1CCCCC1)N1CC(=O)N2CCc3ccccc3C2C1 (stereo not given) [Praziquantel],0.45 ± 0.16,0.49 ± 0.15
COc1ccc(C2CNC(=O)C2)cc1OC1CCCC1 (stereo not given) [Rolipram],0.03 ± 0.18,-0.55 ± 0.18
CC1=C(/C=C/C(C)=C/C=C/C(C)=C\C(=O)O)C(C)(C)CCC1 [Isotretinoin],-0.21 ± 0.22,-0.28 ± 0.21
C[C@]12C=CC(=O)C=C1CC[C@@H]1[C@@H]2[C@@H](O)C[C@@]2(C)[C@H]1CC[C@]2(O)C(=O)CO [Prednisolone],-0.92 ± 0.24,-0.04 ± 0.2
CN(C)Cc1ccc(S(=O)(=O)n2ccc(/C=C/C(=O)NO)c2)cc1 [Resminostat],0.2 ± 0.16,0.29 ± 0.13
N[C@@]1(C(=O)O)CS(=O)(=O)[C@H]2[C@H](C(=O)O)[C@H]21,0.08 ± 0.14,-0.27 ± 0.13
CC1=C(C(=O)Nc2cc3cn[nH]c3cc2F)C(c2ccc(C(F)(F)F)cc2)CC(=O)N1 (stereo not given),-0.68 ± 0.16,0.1 ± 0.16
CCn1cc(C(=O)O)c(=O)c2cc(F)c(N3CCN(C)CC3)cc21 [Pefloxacin Mesylate],-0.97 ± 0.19,-1.13 ± 0.29
Cc1noc(NS(=O)(=O)c2ccc(N)cc2)c1C [Sulfisoxazole],0.08 ± 0.24,-1.57 ± 0.28
O=C1CCc2cc(OCCCCc3nnnn3C3CCCCC3)ccc2N1 [Cilostazol],-0.79 ± 0.15,-0.43 ± 0.2
CC(C)(C)NC(=O)[C@H]1CC[C@H]2[C@@H]3CC[C@H]4NC(=O)C=C[C@]4(C)[C@H]3CC[C@]12C [Finasteride],-0.5 ± 0.21,-1.75 ± 0.25
C#CCN[C@@H]1CCc2ccccc21 [Rasagiline Mesylate],0.4 ± 0.2,-0.35 ± 0.24
C[C@@H]1CN(CC(=O)Nc2ccc3c(c2)Cc2cccc(-c4cc(=O)cc(N5CCOCC5)o4)c2S3)C[C@H](C)O1,-0.13 ± 0.18,-0.9 ± 0.2
CCn1c(-c2nonc2N)nc2c(C#CC(C)(C)O)ncc(OC[C@H]3CCCNC3)c21,-1.34 ± 0.2,0.52 ± 0.22
CC(C)NCC(O)COc1ccc(COCCOC(C)C)cc1 (stereo not given) [Bisoprolol fumarate],0 ± 0.2,-2.05 ± 0.27
Cc1cnc(NC(=O)C2=C(O)c3ccccc3S(=O)(=O)N2C)s1 [Meloxicam],-0.59 ± 0.23,0.18 ± 0.2
CC(=O)c1cc([N+](=O)[O-])c(Sc2ccc(F)cc2F)s1,0.41 ± 0.19,0.99 ± 0.26
C[C@H]1O[C@@H](Oc2c(-c3cc(O)c(O)c(O)c3)oc3cc(O)cc(O)c3c2=O)[C@@H](O)[C@@H](O)[C@@H]1O [Myricitrin],0.14 ± 0.29,-0.07 ± 0.3
Cc1ccc2c(=O)c3cccc(CC(=O)O)c3oc2c1C [DMXAA (Vadimezan)],-0.06 ± 0.13,-0.51 ± 0.16
CC(C(=O)O)c1ccc2c(c1)CC(=O)c1ccccc1S2 (stereo not given) [Zaltoprofen],-0.54 ± 0.2,0.2 ± 0.14
COC1CCN(C(=O)c2cc(Cc3n[nH]c(=O)c4ccccc34)ccc2F)CC1,-0.81 ± 0.18,0.19 ± 0.12
C[C@@H](O)[C@H]1C(=O)N2C(C(=O)O)=C(S[C@@H]3CN[C@H](CNS(N)(=O)=O)C3)[C@H](C)[C@H]12 [Doripenem Hydrate],0.23 ± 0.24,-0.07 ± 0.23

# One compound at a time, from the list above.
# `CCn1cc(C(=O)O)c(=O)c2cc(F)c(N3CCN(C)CC3)cc21` [Pefloxacin Mesylate] in the list: rod outer segment growth distance Dg [1] [um]: -0.97 ± 0.19; rod outer segment shedding distance Ds [2] [um]: -1.13 ± 0.29
# `Cc1cc2c(cc1CC(=O)c1sccc1S(=O)(=O)Nc1onc(C)c1Cl)OCO2` [Sitaxentan sodium] in the list: rod outer segment growth distance Dg [1] [um]: -0.03 ± 0.17; rod outer segment shedding distance Ds [2] [um]: 0.18 ± 0.16

# From the supplement of paper PMC6143611
